# Assay results published in paper PMC7726267.
# Protein sequences, listed by entry. Tags and fused reporters are not part of them. Lines headed by an entry give the natural chain unless they say otherwise; changes in a name come on top. Residues count along the entry.
# UniProt Q03692, residues 19-680: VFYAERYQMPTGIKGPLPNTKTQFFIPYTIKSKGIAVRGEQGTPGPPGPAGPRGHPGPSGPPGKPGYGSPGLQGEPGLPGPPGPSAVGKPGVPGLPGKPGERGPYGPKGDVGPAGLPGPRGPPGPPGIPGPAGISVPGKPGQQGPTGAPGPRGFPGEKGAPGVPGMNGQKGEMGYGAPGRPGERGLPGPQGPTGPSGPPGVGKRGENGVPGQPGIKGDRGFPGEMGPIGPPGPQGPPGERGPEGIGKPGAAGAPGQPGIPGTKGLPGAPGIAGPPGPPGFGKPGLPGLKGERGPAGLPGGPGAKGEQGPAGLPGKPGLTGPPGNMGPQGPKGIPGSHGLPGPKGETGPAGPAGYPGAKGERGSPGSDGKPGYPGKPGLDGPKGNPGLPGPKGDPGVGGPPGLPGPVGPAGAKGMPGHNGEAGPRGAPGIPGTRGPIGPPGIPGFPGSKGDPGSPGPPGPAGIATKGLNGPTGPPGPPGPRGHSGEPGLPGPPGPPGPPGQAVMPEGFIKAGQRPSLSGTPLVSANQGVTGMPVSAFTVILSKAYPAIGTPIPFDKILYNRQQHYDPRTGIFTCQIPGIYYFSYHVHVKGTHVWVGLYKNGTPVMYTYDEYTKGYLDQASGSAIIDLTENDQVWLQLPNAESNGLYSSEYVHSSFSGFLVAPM
# UniProt P05556: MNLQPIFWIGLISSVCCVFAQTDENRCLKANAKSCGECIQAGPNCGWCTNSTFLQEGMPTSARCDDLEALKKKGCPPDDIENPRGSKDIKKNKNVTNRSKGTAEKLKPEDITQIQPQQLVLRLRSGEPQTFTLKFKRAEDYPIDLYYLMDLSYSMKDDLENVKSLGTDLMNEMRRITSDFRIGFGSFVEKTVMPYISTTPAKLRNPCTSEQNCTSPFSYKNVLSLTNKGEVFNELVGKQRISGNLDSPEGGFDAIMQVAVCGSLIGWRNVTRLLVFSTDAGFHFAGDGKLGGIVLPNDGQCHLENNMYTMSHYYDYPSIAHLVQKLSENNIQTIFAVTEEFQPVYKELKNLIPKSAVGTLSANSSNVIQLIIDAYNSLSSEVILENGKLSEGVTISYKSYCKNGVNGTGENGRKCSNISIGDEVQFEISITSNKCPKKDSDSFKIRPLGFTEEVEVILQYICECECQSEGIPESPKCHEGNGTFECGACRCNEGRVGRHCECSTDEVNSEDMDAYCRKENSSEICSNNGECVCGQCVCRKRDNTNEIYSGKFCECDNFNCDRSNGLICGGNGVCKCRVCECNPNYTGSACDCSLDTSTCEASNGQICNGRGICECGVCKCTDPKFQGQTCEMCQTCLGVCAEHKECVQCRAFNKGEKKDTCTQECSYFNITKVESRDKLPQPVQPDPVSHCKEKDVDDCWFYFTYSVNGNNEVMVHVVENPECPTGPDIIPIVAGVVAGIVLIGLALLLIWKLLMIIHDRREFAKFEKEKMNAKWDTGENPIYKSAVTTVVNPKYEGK
# No constants are given. Whether binding was seen depends on the method and setting. In cells and extracts the contact can be indirect. Some entries that bind do so weakly or less than the wild type.
# B1: Discoidin domain receptor tyrosine kinase 2 (DDR2) (receptor, UniProt Q16832 22-855)
# chain: KAQVNPAICRYPLGMSGGQIPDEDITASSQWSESTAAKYGRLDSEEGDGAWCPEIPVEPDDLKEFLQIDLHTLHFITLVGTQGRHAGGHGIEFAPMYKINYSRDGTRWISWRNRHGKQVLDGNSNPYDIFLKDLEPPIVARFVRFIPVTDHSMNVCMRVELYGCVWLDGLVSYNAPAGQQFVLPGGSIIYLNDSVYDGAVGYSMTEGLGQLTDGVSGLDDFTQTHEYHVWPGYDYVGWRNESATNGYIEIMFEFDRIRNFTTMKVHCNNMFAKGVKIFKEVQCYFRSEASEWEPNAISFPLVLDDVNPSARFVTVPLHHRMASAIKCQYHFADTWMMFSEITFQSDAAMYNNSEALPTSPMAPTTYDPMLKVDDSNTRILIGCLVAIIFILLAIIVIILWRQFWQKMLEKASRRMLDDEMTVSLSLPSDSSMFNNNRSSSPSEQGSNSTYDRIFPLRPDYQEPSRLIRKLPEFAPGEEESGCSGVVKPVQPSGPEGVPHYAEADIVNLQGVTGGNTYSVPAVTMDLLSGKDVAVEEFPRKLLTFKEKLGEGQFGEVHLCEVEGMEKFKDKDFALDVSANQPVLVAVKMLRADANKNARNDFLKEIKIMSRLKDPNIIHLLAVCITDDPLCMITEYMENGDLNQFLSRHEPPNSSSSDVRTVSYTNLKFMATQIASGMKYLSSLNFVHRDLATRNCLVGKNYTIKIADFGMSRNLYSGDYYRIQGRAVLPIRWMSWESILLGKFTTASDVWAFGVTLWETFTFCQEQPYSQLSDEQVIENTGEFFRDQGRQTYLPQPAICPDSVYKLMLSCWRRDTKNRPSFQEIHLLLLQQGDE
# Target: Collagen type X alpha 1 (COL10A1) (human (endogenous in H1299)) (UniProt Q03692)
# Experiment: co-IP; H1299 cell lysate in co-IP buffer (20 mM Tris-Cl pH 7.5, 150 mM NaCl, 1 mM EDTA, 0.5% NP-40, 5 μg/ml aprotinin); 5 μg anti-collagen X antibody (ab58632) and protein A-Sepharose, 4°C, 4 h; bound protein detected by western blot
molecule,measurement,value
integrin β1 (from UniProt P05556 21-798) (receptor),binding,no binding
B1,binding,binds
